Measured values from US20220233668A1 (VICTORIA LINK LTD., priority 2019, published 2022).

Test: general procedure: Fmoc solid-phase peptide synthesis; HMPB ChemMatrix resin preloaded with the first Fmoc amino acid; diisopropylcarbodiimide / Oxyma
Settings: conjugation step
V.Ox.FFRK.EIYSP gave a conjugation yield of 84%. For V.Ox.FFRK.NVFLP, the conjugation yield was 46%. V.Ox.FFRK.NVFSP gave a conjugation yield of 47%. V.Ox.FFRK.NVYSP showed a conjugation yield of 77%. Substance V.S.FFRK.NVYSP has a conjugation yield of 82%. Substance V.S.NVYLP has a conjugation yield of 73%.
